According to US12729225B2, “Non-canonical SWI/SNF complex and uses thereof” (Dana-Farber Cancer Institute, Inc., priority 2018, dated 2026):

Test system: mSWI/SNF complexes
Assay: mSWI/SNF complex purification with HA-tagged baits and mass spectrometry (peptide counts)
Set-up: species or system human
[1] = 293_HA-BRD7 bait purification, mass spectrometry, total peptide count per identified protein
[2] = 293_HA-BRD7 bait purification, mass spectrometry, unique peptide count per identified protein
[3] = 293_HA-BRD7 bait purification, mass spectrometry, total peptides per co-purified protein
[4] = 293_HA-BRD7 bait purification, mass spectrometry, unique peptides per co-purified protein
[5] = 293_HA-BRD7: HA-BRD7 bait purification, total peptide count per co-purified protein
[6] = 293_HA-BRD7: HA-BRD7 bait purification, unique peptide count per co-purified protein
[7] = total peptide count of the co-purified protein, 293_HA-BRD9 (HA-BRD9 bait, mass spectrometry), Table 3b
[8] = unique peptide count of the co-purified protein, 293_HA-BRD9 (HA-BRD9 bait, mass spectrometry), Table 3b
[9] = 293_HA-DPF2 purification, total peptides
[10] = 293_HA-DPF2 purification, unique peptides

Row | Substance | Total [1] | Unique [2] | Total [3] | Unique [4] | Total [5] | Unique [6] | also measured
1 | ##ASCC3 | 1 | 1 |  |  |  |  | 
2 | ##ATP1A2 | 1 | 1 |  |  |  |  | 
3 | ##DNAH5 |  |  | 3 | 2 |  |  | 
4 | ##GOLGA4 | 1 | 1 |  |  |  |  | 
5 | ##INF2 | 1 | 1 |  |  |  |  | 
6 | ##LRP4 | 1 | 1 |  |  |  |  | 
7 | ##LRP8 | 1 | 1 |  |  |  |  | 
8 | ##MYH14 | 1 | 1 |  |  |  |  | 
9 | ##RAD50 | 1 | 1 |  |  |  |  | 
10 | ##SMIM7 (VLNFKLKKKDTQGFGEESREPSTGDNIREFLLSLRYFRIFIALWNIFMMFCMIVLFGS; UniProt Q9BQ49 18-75, looked up) | 1 | 1 |  |  |  |  | 
11 | ##TIGD4 | 1 | 1 |  |  |  |  | 
12 | ABCA9 | 1 | 1 |  |  |  |  | 
13 | ABCC1 | 1 | 1 |  |  |  |  | 
14 | ADCK3 |  |  | 2 | 2 |  |  | 
15 | AFG3L2 |  |  |  |  | 6 | 6 | 
16 | AGO2 |  |  | 2 | 2 |  |  | 
17 | AIFM1 |  |  |  |  | 19 | 17 | Total [7]: 6; Unique [8]: 6
18 | ALDH3A2 | 1 | 1 |  |  |  |  | 
19 | ANXA2 | 1 | 1 |  |  |  |  | Total [7]: 4; Unique [8]: 3
20 | APOD |  |  |  |  |  |  | Total [7]: 1; Unique [8]: 1
21 | ARF1 |  |  | 2 | 2 |  |  | 
22 | ARID1B |  |  |  |  |  |  | Total [9]: 147; Unique [10]: 85
23 | ATP5B |  |  |  |  | 38 | 30 | Total [9]: 6; Unique [10]: 5; Total [7]: 10; Unique [8]: 10

Row | Substance | Total [1] | Unique [2] | Total [3] | Unique [4] | Total [5] | Unique [6] | also measured
24 | ATP5H |  |  |  |  | 6 | 6 | 
25 | BCL7C |  |  |  |  | 17 | 10 | Total [9]: 13; Unique [10]: 7; Total [7]: 3; Unique [8]: 3
26 | BCLAF1 | 1 | 1 |  |  |  |  | 
27 | CAMTA1 | 1 | 1 |  |  |  |  | 
28 | CCT3 |  |  | 3 | 3 |  |  | 
29 | CCT5 | 1 | 1 |  |  |  |  | 
30 | CCT6A |  |  | 3 | 3 |  |  | 
31 | CCT7 |  |  | 2 | 1 |  |  | 
32 | CD3EAP | 1 | 1 |  |  |  |  | 
33 | CDC42BPB |  |  |  |  |  |  | Total [7]: 1; Unique [8]: 1
34 | CDK12 |  |  |  |  | 6 | 5 | 
35 | CFL1 |  |  | 1 | 1 |  |  | 
36 | CHD3 |  |  |  |  |  |  | Total [7]: 1; Unique [8]: 1
37 | CHD4 |  |  | 3 | 3 |  |  | 
38 | CKMT1A |  |  |  |  | 5 | 5 | 
39 | CLK1 |  |  | 3 | 3 |  |  | 
40 | CLTC |  |  |  |  | 5 | 5 | 
41 | CPSF3L | 1 | 1 |  |  |  |  | 
42 | CSNK2A1 | 1 | 1 |  |  |  |  | 
43 | CTPS1 | 1 | 1 |  |  |  |  | 
44 | CXorf56 |  |  |  |  | 4 | 4 | 
45 | CYCS | 1 | 1 |  |  |  |  | 
46 | DDX21 |  |  |  |  | 18 | 17 | Total [7]: 6; Unique [8]: 6

Row | Substance | Total [1] | Unique [2] | Total [3] | Unique [4] | Total [5] | Unique [6] | also measured
47 | DDX39A | 1 | 1 |  |  |  |  | 
48 | DDX39B |  |  |  |  | 9 | 8 | 
49 | DDX41 |  |  |  |  | 36 | 33 | Total [7]: 3; Unique [8]: 3
50 | DDX52 |  |  | 4 | 3 |  |  | 
51 | DDX54 |  |  |  |  | 29 | 26 | 
52 | DES | 1 | 1 |  |  |  |  | 
53 | DHX9 |  |  |  |  | 15 | 14 | Total [7]: 1; Unique [8]: 1
54 | DLD |  |  |  |  | 9 | 9 | 
55 | DLST | 1 | 1 |  |  |  |  | 
56 | DMBT1 |  |  |  |  |  |  | Total [7]: 1; Unique [8]: 1
57 | DNAJA1 |  |  |  |  | 4 | 4 | 
58 | DNAJA2 |  |  | 3 | 3 |  |  | 
59 | DNAJB1 | 1 | 1 |  |  |  |  | 
60 | DNM2 | 1 | 1 |  |  |  |  | 
61 | DYNC1H1 |  |  |  |  | 5 | 5 | 
62 | EEF1G |  |  |  |  | 6 | 5 | 
63 | EFTUD2 |  |  |  |  | 11 | 11 | Total [7]: 6; Unique [8]: 6
64 | EIF4A1 |  |  | 3 | 3 |  |  | 
65 | EIF4H |  |  | 2 | 1 |  |  | 
66 | EIF5A |  |  | 1 | 1 |  |  | 
67 | ELAVL1 |  |  | 3 | 3 |  |  | 
68 | EMC1 |  |  | 3 | 3 |  |  | 
69 | EMD |  |  |  |  | 5 | 5 | 

Row | Substance | Total [1] | Unique [2] | Total [3] | Unique [4] | Total [5] | Unique [6] | also measured
70 | EPB41L2 |  |  | 4 | 4 |  |  | 
71 | EPB41L4B |  |  | 2 | 2 |  |  | 
72 | EPB41L5 |  |  |  |  | 32 | 26 | 
73 | ERCC4 |  |  | 2 | 1 |  |  | 
74 | ERLIN2 |  |  | 2 | 2 |  |  | 
75 | ESYT1 | 1 | 1 |  |  |  |  | 
76 | ESYT2 |  |  | 4 | 4 |  |  | 
77 | EZR |  |  |  |  | 7 | 7 | 
78 | FANCI | 1 | 1 |  |  |  |  | 
79 | FLG2 |  |  | 2 | 2 |  |  | 
80 | FLNA |  |  |  |  | 4 | 4 | 
81 | GAPDH | 1 | 1 |  |  |  |  | Total [7]: 1; Unique [8]: 1
82 | GCN1L1 | 1 | 1 |  |  |  |  | 
83 | GLTSCR1 |  |  |  |  |  |  | Total [7]: 62; Unique [8]: 33
84 | GLTSCR2 |  |  | 3 | 3 |  |  | 
85 | GLUD1 |  |  | 3 | 3 |  |  | 
86 | GPI |  |  | 2 | 2 |  |  | 
87 | GPR141 | 1 | 1 |  |  |  |  | 
88 | GRWD1 |  |  | 1 | 1 |  |  | 
89 | HADHA |  |  |  |  | 15 | 15 | Total [7]: 1; Unique [8]: 1
90 | HAX1 |  |  | 2 | 2 |  |  | 
91 | HDAC1 | 1 | 1 |  |  |  |  | 
92 | HDAC2 |  |  | 2 | 2 |  |  | 

Row | Substance | Total [1] | Unique [2] | Total [3] | Unique [4] | Total [5] | Unique [6] | also measured
93 | HEATR1 |  |  | 3 | 3 |  |  | Total [7]: 1; Unique [8]: 1
94 | HIST1H1A | 1 | 1 |  |  |  |  | Total [7]: 1; Unique [8]: 1
95 | HIST1H1C |  |  |  |  |  |  | Total [7]: 1; Unique [8]: 1
96 | HMGB1 |  |  | 3 | 3 |  |  | 
97 | HNRNPAB | 1 | 1 | 3 | 3 |  |  | 
98 | HNRNPK |  |  |  |  | 14 | 13 | 
99 | HNRNPU |  |  |  |  | 5 | 5 | 
100 | HOXA5 | 1 | 1 |  |  |  |  | 
101 | HSP90AA1 |  |  | 3 | 3 |  |  | 
102 | HSP90AB1 |  |  |  |  | 4 | 4 | 
103 | HSP90B1 |  |  |  |  | 11 | 11 | 
104 | HSPA1A |  |  |  |  | 20 | 19 | Total [7]: 9; Unique [8]: 8
105 | HSPA1L |  |  |  |  | 16 | 13 | Total [7]: 5; Unique [8]: 5
106 | HSPA2 |  |  |  |  | 7 | 7 | Total [9]: 1; Unique [10]: 1; Total [7]: 2; Unique [8]: 2
107 | HSPA5 |  |  |  |  | 34 | 29 | Total [9]: 5; Unique [10]: 5; Total [7]: 20; Unique [8]: 15
108 | HSPA8 |  |  |  |  | 28 | 25 | Total [9]: 1; Unique [10]: 1; Total [7]: 14; Unique [8]: 13
109 | HSPA9 |  |  |  |  | 53 | 40 | Total [9]: 10; Unique [10]: 7; Total [7]: 11; Unique [8]: 11
110 | HSPB1 |  |  | 2 | 2 |  |  | 
111 | HSPE1 | 1 | 1 |  |  |  |  | 
112 | ILF2 |  |  |  |  | 8 | 8 | 
113 | INTS3 |  |  | 3 | 2 |  |  | 
114 | ITCH | 1 | 1 |  |  |  |  | 
115 | KARS |  |  | 2 | 1 |  |  | 

Row | Substance | Total [1] | Unique [2] | Total [3] | Unique [4] | Total [5] | Unique [6] | also measured
116 | KHDRBS1 |  |  | 4 | 4 |  |  | 
117 | KLF12 |  |  | 2 | 1 |  |  | 
118 | KPNA1 |  |  |  |  | 4 | 4 | 
119 | KPNA4 |  |  |  |  | 5 | 5 | 
120 | KPNA6 |  |  | 2 | 2 |  |  | 
121 | KRT16 |  |  |  |  | 6 | 4 | 
122 | LAMP2 | 1 | 1 |  |  |  |  | 
123 | LARP4 | 1 | 1 |  |  |  |  | 
124 | LAS1L |  |  | 4 | 4 |  |  | 
125 | LYZ |  |  |  |  |  |  | Total [7]: 1; Unique [8]: 1
126 | MACF1 |  |  |  |  |  |  | Total [7]: 1; Unique [8]: 1
127 | MCM6 |  |  | 2 | 2 |  |  | 
128 | MCM7 |  |  |  |  | 16 | 15 | Total [9]: 1; Unique [10]: 1; Total [7]: 6; Unique [8]: 6
129 | MDN1 |  |  | 1 | 1 |  |  | 
130 | MGST3 | 1 | 1 |  |  |  |  | 
131 | MMTAG2 |  |  |  |  | 18 | 14 | 
132 | MPG |  |  |  |  | 4 | 4 | 
133 | MRPL28 |  |  | 1 | 1 |  |  | 
